Source: publication doi:10.1101/2024.03.15.585069
No constants are given. Whether binding was seen depends on the method and setting. In cells and extracts the contact can be indirect. These calls come from enrichment with a bait or labelling near it, and not all partners need be listed. A no says only that the protein was not detected with the bait. Tags and fused reporters may be left off the sequences shown.

Amino acid sequences for entries named in this document (tags omitted). A change or cut given only in a name is not applied to a line headed by its entry.
UniProt Q8GUI6: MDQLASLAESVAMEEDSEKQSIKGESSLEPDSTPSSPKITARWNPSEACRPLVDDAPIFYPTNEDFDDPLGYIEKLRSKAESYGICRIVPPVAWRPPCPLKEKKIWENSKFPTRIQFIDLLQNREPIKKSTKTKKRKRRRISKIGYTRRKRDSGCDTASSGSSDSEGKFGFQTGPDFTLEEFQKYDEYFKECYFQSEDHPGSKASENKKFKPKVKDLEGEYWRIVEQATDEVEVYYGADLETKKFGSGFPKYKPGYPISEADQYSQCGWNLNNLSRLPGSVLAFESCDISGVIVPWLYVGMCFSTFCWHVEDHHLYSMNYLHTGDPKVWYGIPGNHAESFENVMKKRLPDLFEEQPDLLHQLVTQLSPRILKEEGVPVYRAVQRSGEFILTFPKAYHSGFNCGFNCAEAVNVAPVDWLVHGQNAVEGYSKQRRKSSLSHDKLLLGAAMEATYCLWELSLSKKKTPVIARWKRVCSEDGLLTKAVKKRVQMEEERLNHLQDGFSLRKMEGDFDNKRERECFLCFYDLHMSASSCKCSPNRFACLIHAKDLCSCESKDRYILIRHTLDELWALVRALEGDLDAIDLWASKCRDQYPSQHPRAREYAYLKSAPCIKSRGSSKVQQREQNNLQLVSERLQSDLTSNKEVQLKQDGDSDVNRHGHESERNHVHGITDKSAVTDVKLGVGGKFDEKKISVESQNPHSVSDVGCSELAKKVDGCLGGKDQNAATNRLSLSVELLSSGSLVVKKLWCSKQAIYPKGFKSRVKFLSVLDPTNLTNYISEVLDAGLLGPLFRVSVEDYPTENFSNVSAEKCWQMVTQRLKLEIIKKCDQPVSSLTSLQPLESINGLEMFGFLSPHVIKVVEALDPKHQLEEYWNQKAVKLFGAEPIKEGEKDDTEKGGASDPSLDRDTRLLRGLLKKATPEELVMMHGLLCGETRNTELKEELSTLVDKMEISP
UniProt O22467: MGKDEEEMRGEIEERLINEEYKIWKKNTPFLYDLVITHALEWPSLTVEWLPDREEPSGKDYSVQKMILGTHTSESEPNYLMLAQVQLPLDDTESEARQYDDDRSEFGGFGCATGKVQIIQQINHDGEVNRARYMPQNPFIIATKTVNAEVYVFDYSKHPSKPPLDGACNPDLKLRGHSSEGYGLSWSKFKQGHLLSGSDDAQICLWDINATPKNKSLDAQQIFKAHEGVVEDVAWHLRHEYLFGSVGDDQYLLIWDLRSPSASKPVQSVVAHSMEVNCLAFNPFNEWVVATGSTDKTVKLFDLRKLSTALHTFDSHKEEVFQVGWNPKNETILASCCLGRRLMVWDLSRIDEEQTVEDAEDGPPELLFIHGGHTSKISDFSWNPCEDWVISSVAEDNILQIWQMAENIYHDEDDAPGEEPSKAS
UniProt F4I7L1: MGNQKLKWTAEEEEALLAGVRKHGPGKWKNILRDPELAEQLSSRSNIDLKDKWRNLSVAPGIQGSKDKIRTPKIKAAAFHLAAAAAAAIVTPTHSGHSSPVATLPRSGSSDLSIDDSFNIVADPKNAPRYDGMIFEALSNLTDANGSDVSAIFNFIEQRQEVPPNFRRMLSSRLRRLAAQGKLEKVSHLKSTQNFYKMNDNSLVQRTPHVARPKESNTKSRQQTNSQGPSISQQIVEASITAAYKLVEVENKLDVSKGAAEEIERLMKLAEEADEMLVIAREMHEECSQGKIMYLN
UniProt F4IEY4: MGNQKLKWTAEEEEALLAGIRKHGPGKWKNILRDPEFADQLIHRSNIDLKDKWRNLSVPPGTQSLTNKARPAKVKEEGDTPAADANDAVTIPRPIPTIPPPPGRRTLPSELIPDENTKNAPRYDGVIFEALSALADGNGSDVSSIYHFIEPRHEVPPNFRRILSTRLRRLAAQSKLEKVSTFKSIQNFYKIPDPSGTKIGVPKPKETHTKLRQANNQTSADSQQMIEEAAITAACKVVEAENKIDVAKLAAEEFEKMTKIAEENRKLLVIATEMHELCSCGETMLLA

Experiments:
[1] = biological target: T1, GSRhino-TAP-tagged CP2 (CUPULIFORMIS2) (Arabidopsis thaliana) (UniProt P0DO23); test: affinity purification with mass spectrometry
T1 sequence: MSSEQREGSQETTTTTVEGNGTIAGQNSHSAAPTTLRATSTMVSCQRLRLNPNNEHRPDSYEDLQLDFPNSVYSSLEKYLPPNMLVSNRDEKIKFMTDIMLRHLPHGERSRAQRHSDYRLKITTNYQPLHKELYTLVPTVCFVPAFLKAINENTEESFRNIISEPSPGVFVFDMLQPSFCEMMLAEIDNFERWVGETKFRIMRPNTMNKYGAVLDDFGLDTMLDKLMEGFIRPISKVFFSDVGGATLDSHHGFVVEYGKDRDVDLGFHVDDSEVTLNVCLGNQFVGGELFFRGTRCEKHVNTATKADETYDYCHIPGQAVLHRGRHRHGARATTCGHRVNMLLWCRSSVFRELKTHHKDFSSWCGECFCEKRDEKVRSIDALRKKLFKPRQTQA

[2] = biological target: T2, GSRhino-TAP-tagged ICU11 (INCURVATA11) (Arabidopsis thaliana) (UniProt Q3ED68); test: affinity purification with mass spectrometry
T2 sequence: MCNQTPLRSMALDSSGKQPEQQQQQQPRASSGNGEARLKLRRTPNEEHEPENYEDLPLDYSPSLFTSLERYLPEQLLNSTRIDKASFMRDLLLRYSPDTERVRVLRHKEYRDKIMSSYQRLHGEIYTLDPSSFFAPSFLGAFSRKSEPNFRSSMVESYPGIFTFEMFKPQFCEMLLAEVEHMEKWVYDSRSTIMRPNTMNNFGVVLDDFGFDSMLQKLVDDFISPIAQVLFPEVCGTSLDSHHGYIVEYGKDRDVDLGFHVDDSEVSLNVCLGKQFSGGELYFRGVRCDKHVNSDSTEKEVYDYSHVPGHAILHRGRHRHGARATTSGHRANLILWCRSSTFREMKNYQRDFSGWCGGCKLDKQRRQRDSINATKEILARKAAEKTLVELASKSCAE

binding [1] | binding [2] | Substance
binds | no binding | DEVELOPMENT RELATED MYB-LIKE1 (DRMY1)
binds | no binding | DRMY PARALOG 1 (DP1)
no binding | – | JMJ14 (from UniProt Q8GUI6 1-954)
– | binds | MULTICOPY SUPRESSOR OF IRA 1 (MSI1) (from UniProt O22467 1-424)
binds | – | TRB4 (from UniProt F4I7L1)
binds | – | TRB5 (from UniProt F4IEY4)
